Experimental data: PubChem BioAssay AID1259308 (NCATS, 2017)
The deposit covers about 59,000 reagents; below is a part drawn at random. About 1,510 of all reagents (2.6%) were called active. 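Calls use total luciferase alone and ignore viability, so some active siRNAs may act by altering cell number.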 Unmarked entries are inactive. Reagents against one gene are numbered here.

Aim: 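Knock-downs that increase output of a recombinant reporter protein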 (primary screen)
System: human HEK293 embryonic kidney cells stably expressing firefly luciferase (HEK-CMV-Luc2-Hygro)
Reagents: single siRNA against human genes, 0.8 pmol siRNA per well
Timing: 72 h
Read-out: 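Reporter luminescence and viable-cell signal on separate replicate plates, given as percent of non-targeting control and median/MAD z-scores, plus per-cell luciferase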
Scale: total luciferase, z-score and total luciferase, % of control: higher = more reporter protein produced; luciferase per cell, z-score: higher = more reporter output per viable cell; viable cells, % of control: higher = more viable cells
Hit rule: 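Active when the median/MAD z-score for overall luciferase is greater than 3; a gene was taken forward for validation with new siRNAs if at least two of its three siRNAs passed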
Meaning of the calls: active = raised luciferase; inactive = no rise

no.	gene knocked down	reagent no.	total luciferase, z-score	total luciferase, % of control	luciferase per cell, z-score	viable cells, % of control
1	ZMYM3	1	2.72	136	2.16	86.1
2	ZMYM3	2	1.74	117	1.21	94.6
3	ZMYM3	3	0.452	90.9	0.165	97.2
4	SPATA20	1	-1.8	46	-1.29	72.3
5	SPATA20	2	0.694	95.7	0.985	82.5
6	SPATA20	3	2.14	125	1.72	88.4
7	VTI1A	1	0.955	101	0.681	94.2
8	VTI1A	2	0.532	92.5	0.12	100
9	VTI1A	3	-0.656	68.8	-1.04	101
10	OR13H1	1	-1.41	53.8	-0.915	76.6
11	OR13H1	2	0.955	101	0.696	93.8
12	OR13H1	3	1.77	117	1.21	95.1
13	SH2D6	1	-1.04	61.3	-0.784	84.2
14	SH2D6	2	1.79	118	1.68	84.5
15	SH2D6	3	-0.476	72.4	0.41	72.6
16	PCSK9	1	0.638	94.6	0.186	101
17	PCSK9	2	2.62	134	1.47	102
18	PCSK9	3	-1.45	53	-1.5	87.8
19	IGFLR1	1	0.632	94.5	1.07	79.6
20	IGFLR1	2	0.095	83.8	0.108	91
21	IGFLR1	3	0.736	96.5	0.513	94.2
22	PBX1	1	-0.31	75.7	0.628	71.7
23	PBX1	2	-1.61	49.9	-1.26	77.8
24	PBX1	3	-0.817	65.6	-0.716	88.6
25	CRACR2A	1	0.354	88.9	-0.285	107
26	CRACR2A	2	-0.103	79.8	-0.0536	90.5
27	CRACR2A	3	0.289	87.6	0.314	90.2

Entries above whose target name begins with I or i:
gene knocked down	reagent no.	total luciferase, z-score	total luciferase, % of control	luciferase per cell, z-score	viable cells, % of control
IGFLR1	1	0.632	94.5	1.07	79.6
IGFLR1	2	0.095	83.8	0.108	91
IGFLR1	3	0.736	96.5	0.513	94.2

Next records follow:
no.	gene knocked down	reagent no.	total luciferase, z-score	total luciferase, % of control	luciferase per cell, z-score	viable cells, % of control
28	CERK	1	0.228	86.4	0.292	89.4
29	CERK	2	-1.52	51.7	-2.1	100
30	CERK	3	-0.142	79.1	-0.601	103
31	NECAP2	1	-0.866	64.7	-0.311	78.4
32	NECAP2	2	-0.789	66.2	-0.974	95.6
33	NECAP2	3	-0.825	65.5	-1.37	105
34	ATG4B	1	-1.87	44.7	-1.16	67.7
35	ATG4B	2	-1.74	47.3	-1.42	76.7
36	ATG4B	3	0.807	97.9	2.2	61.4
37	TCF3	1	-2.92	23.8	-2.85	56.3
38	TCF3	2	2.67	135	3.6	58.4
39	TCF3	3	-0.418	73.6	0.705	68.3
40	FGFR3	1	0.867	99.1	1.45	75.6
41	FGFR3	2	0.878	99.3	0.182	106
42	FGFR3	3	0.635	94.5	-0.0912	108
43	STT3B	1	1.42	110	0.79	100
44	STT3B	2	-1.46	52.9	-1.15	80.1
45	STT3B	3	-0.0764	80.4	0.111	87.2
46	UBQLN4	1	0.536	92.5	1.13	76.9
47	UBQLN4	2	1.35	109	2.13	69.4
48	UBQLN4	3	-0.589	70.2	1.34	55.1
49	POGLUT1	1	-0.311	75.7	-0.581	98.6
50	POGLUT1	2	-0.181	78.3	-0.979	113
51	POGLUT1	3	-0.894	64.1	-0.877	90.2
52	FAH	1	0.105	84	0.45	83.3
53	FAH	2	2.8	138	1.79	95.9
54	FAH	3	-0.774	66.5	1.16	54.7
55	LRRC55	1	1.67	115	1.63	83.7
56	LRRC55	2	-0.482	72.3	-0.678	96.6
57	LRRC55	3	-0.863	64.7	-1.82	117
